Measured values reported in PubChem BioAssay AID590 (National Center for Advancing Translational Sciences (NCATS), 2007).
The whole screen tested about 59,000 compounds, of which about 6,500 (11%) were called active. This list was built around the results that the source calls inconclusive (neither active nor inactive); the mix of calls is not that of the screen. Rule as the data show it: active = max dye-equivalent concentration above about 10 nM; inconclusive = mostly about 1.1 nM to 9.6 nM; inactive = weaker than that.

assay: qHTS Assay for Spectroscopic Profiling in A350 Spectral Region; conditions: Compound autofluorescence, 340/450 nm, Alexa 350 dye-equivalents; stronger effect = higher value

| SMILES | max dye-equivalent concentration |
| --- | --- |
| CCCCC(c1nnnn1CC1CCCO1)N1CCN(c2cc(Cl)ccc2C)CC1 (stereo unspecified) | inconclusive: 9.5 nM |
| CCN1C(=O)C2(Nc3ccccc3-c3nc4ccccc4n32)c2cc(OC)ccc21 (stereo unspecified) | inconclusive: 1.6 nM |
| COc1cccc(N2CC(C(=O)Nc3c(C)cccc3C)CC2=O)c1 (stereo unspecified) | active: 19 nM |
| N#CCCn1c(=O)c(-c2ccccc2)nc2cnc(OCc3ccccc3)nc21 | active: 11 nM |
| COc1ccc2nc(/N=C(\N)NC(=O)C(C)(C)C)nc(C)c2c1 | active: 190 nM |
| CCCc1cc(=O)[nH]c(=S)[nH]1 | inconclusive: 4.3 nM |
| CS(=O)(=O)N1CCC(C(=O)Nc2cccc(C(F)(F)F)c2)CC1 | inactive |
| Cc1nn(C(C)(C)C)c(OC(=O)c2cccs2)c1S(=O)(=O)c1ccccc1 | inconclusive: 1.3 nM |
| CCn1c(Cc2ccccc2)nnc1SCC(=O)OC(C)C | inactive |
| CN(c1ccccc1)S(=O)(=O)c1ccc(C(=O)OCC(=O)NCc2ccco2)cc1 | inactive |
| Cc1ccc(-n2c(=O)[nH]cc(C(=O)Nc3ccc4c(c3)OCCO4)c2=O)cc1 | inconclusive: 1.3 nM |
| Cc1cc2c(c(=O)o1)C(CC(C)C)C(C#N)=C(N)O2 (stereo unspecified) | inconclusive: 2.7 nM |
| CCCCCOC(=O)C1[C@H]2C(=O)N(Cc3cccs3)C[C@]23C=C[C@H]1O3 (stereo partly specified) | inconclusive: 3.2 nM |
| CCn1cc(C(=O)NCC2CCCO2)c(=O)c2cc(F)c(N3CCN(C)CC3)cc21 (stereo unspecified) | inconclusive: 6.5 nM |
| CN1CCc2nc(SCC(=O)Nc3ccc(Cl)cc3)c(C#N)cc2C1 | active: 26 nM |
| Brc1ccc(-c2cn3cccnc3n2)cc1 | active: 400 nM |
| CC(=O)Nc1nonc1-c1nc2ccccc2n1CC1CC1 | inactive |
| CCN1CCCC1CN=Cc1c(O)n(-c2ccccc2)c(=O)c2ccccc12 (stereo unspecified) | active: 44 nM |
| Cc1noc(C)c1-c1cncnc1-n1ccnc1 | inactive |
| CN1c2ccccc2-c2nc3ccccc3n2C1c1ccncc1 (stereo unspecified) | active: 130 nM |
| CCOc1ccccc1NC(=O)CSc1nccn1-c1ccccc1 | inactive |

| SMILES | max dye-equivalent concentration |
| --- | --- |
| Cc1sc2nc(SCC(=O)N3CCCCC3)[nH]c(=O)c2c1C | inconclusive: 1.1 nM |
| COC(=O)[C@H](CC(C)C)NC(=O)Nc1ccc2c(c1)OCCO2 | inconclusive: 3.5 nM |
| CC1(C)Cc2c(c(-c3ccccc3Cl)[nH]c(=O)c2C#N)CO1 | inconclusive: 4.8 nM |
| O=c1c2ccccc2nc2n1CCC2 | inactive |
| CCn1c(SCC(=O)OC2CCCCC2)nc2ccccc2c1=O | inactive |
| COC(=O)c1ccc(C(=O)OC)c(N)c1 | active: 11000 nM |
| CCCN(Cc1cc2cccc(C)c2[nH]c1=O)C(=O)c1cccc(OC)c1 | inactive |
| CCOC(=O)C1=C(O)CCn2c1nc1ccccc12 | inconclusive: 1.3 nM |
| Nn1c(SCC(=O)Nc2ccccc2)nnc1-c1cccnc1 | inconclusive: 1.1 nM |
| CN(C)c1nc2ccccc2c(N)c1-c1ccccc1 | inconclusive: 6.2 nM |
| CCOC(=O)N1CCC(N(C(=O)Nc2ccccc2)C(C)CC)CC1 (stereo unspecified) | active: 19 nM |
| CC1CCN(C(=O)Nc2cccc(NC(=O)N3CCC(C)CC3)c2)CC1 | inconclusive: 1.4 nM |
| N#Cc1nc(-c2ccco2)oc1NCc1cccnc1 | inconclusive: 3.4 nM |
| COCc1ccccc1Cn1cnc2c1c(=O)n(C)c(=O)n2C | inconclusive: 4.3 nM |
| Cc1ccc2nc(CSc3nnc(-c4ccco4)o3)cc(=O)n2c1 | inconclusive: 6.2 nM |
| COc1cc(-c2nnc3sc(-c4cccs4)nn23)cc(OC)c1OC | inactive |
| O=C(NCc1ccc2c(c1)OCO2)C1CCN(S(=O)(=O)c2ccc(Br)s2)CC1 | inactive |
| Cc1ccc(S(=O)(=O)Cn2nnnc2C(C(C)C)N2CCN(Cc3ccco3)CC2)cc1 (stereo unspecified) | inconclusive: 9.9 nM |
| Cc1cc(NC(=O)CSc2nnc(-c3ccc(S(=O)(=O)N4CCCC4)cc3)n2C)no1 | inconclusive: 1.2 nM |
| NCCOc1ccccn1 | inactive |
| COCCCNC(=O)c1ccc(N2CCCC2)c(NS(=O)(=O)c2ccc(C)cc2)c1 | inactive |

| SMILES | max dye-equivalent concentration |
| --- | --- |
| COC(=O)CCN(c1ccccc1)S(=O)(=O)c1ccc(OC)cc1 | active: 11 nM |
| Cn1c(=O)cc(-c2ccccc2)c2ccccc21 | inconclusive: 1.6 nM |
| CCc1nc(NCC2CCCO2)c(C#N)c2c1COC(C)(C)C2 (stereo unspecified) | active: 170 nM |
| O=c1[nH]c(=S)[nH]c(-c2ccccc2)c1Cc1c(O)ccc2ccccc12 | inconclusive: 2.7 nM |
| c1cncc(-c2cncnc2-n2ccnc2)c1 | inactive |
| CCCC[C@]1(C2CCCC2)Cc2cc(OCC(=O)O)c(Cl)c(Cl)c2C1=O | inactive |
| O=C(c1cnccn1)N1CCC2(CC1)CN(C(c1ccccc1)c1ccccc1)C2 | inactive |
| COc1ccc2c(=O)c3c(=O)n(Cc4ccco4)c(C(C)C)nc3oc2c1 | inactive |
| CCOC(=O)C1CCN(C(=O)c2ccc(Cl)c(S(=O)(=O)N3CCOCC3)c2)CC1 | inconclusive: 1.2 nM |
| CC1(C)S[C@@H]2[C@H](NC(=O)[C@@H](N)c3ccc(O)cc3)C(=O)N2[C@H]1C(=O)O | active: 12 nM |
| Cn1cc(NC(=O)c2cc(NC(=O)c3cc(NC=O)cn3C)cn2C)cc1C(=O)NCCC(=N)N | inactive |
| Cc1ccccc1-c1cc(N2CCN(C)CC2)ncn1 | inactive |
| COc1ccc(CN/C=C2\CCCCC2=O)cc1 | inconclusive: 9.7 nM |
| CCCNC(=O)c1c(N)n(-c2cccc(OC)c2)c2nc3ccccc3nc12 | active: 1100 nM |
| CCCOc1ccccc1C1CC(=O)Nc2cc3c(cc21)OCCO3 (stereo unspecified) | inactive |
| COc1cccc(Cn2c(=O)c(-c3ccccc3)nc3cnc(N4CCNCC4)nc32)c1 | inconclusive: 7.8 nM |
| CCC(=O)N(Cc1cc2c(C)cc(C)cc2[nH]c1=O)C1CCCCC1 | inactive |
| COc1ccc2c3c(cccc13)NN=C2C | inactive |
| COc1ccc2nc(SCC(=O)N3CCCCCC3)c(C#N)cc2c1 | active: 31 nM |
